Reference: the supplement of paper PMC11732987, “Enantioselective OTUD7B fragment discovery through chemoproteomics screening and high-throughput optimisation” (Communications Chemistry, 2025)
The list shows a part of the results. The data scatter; read single values as rough.

Sequences of proteins named here, by UniProt entry; tags and fusion partners are left off. A change or cut given only in a name is not applied to a line headed by its entry.
UniProt Q9NXV6: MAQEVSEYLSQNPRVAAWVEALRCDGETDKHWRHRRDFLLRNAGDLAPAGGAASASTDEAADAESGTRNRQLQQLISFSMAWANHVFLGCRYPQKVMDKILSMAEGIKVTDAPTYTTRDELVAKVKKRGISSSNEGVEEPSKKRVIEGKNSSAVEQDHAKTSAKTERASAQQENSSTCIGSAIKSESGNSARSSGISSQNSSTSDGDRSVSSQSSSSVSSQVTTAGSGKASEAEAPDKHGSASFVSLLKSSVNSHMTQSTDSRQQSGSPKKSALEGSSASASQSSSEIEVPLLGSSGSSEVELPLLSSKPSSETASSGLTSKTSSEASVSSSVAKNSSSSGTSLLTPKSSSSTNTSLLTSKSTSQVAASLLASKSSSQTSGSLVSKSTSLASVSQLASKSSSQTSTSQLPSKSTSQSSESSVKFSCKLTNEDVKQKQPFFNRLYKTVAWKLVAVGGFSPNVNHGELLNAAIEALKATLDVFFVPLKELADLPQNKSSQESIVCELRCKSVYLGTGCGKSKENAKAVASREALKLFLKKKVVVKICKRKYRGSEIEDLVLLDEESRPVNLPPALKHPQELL
UniProt Q15834: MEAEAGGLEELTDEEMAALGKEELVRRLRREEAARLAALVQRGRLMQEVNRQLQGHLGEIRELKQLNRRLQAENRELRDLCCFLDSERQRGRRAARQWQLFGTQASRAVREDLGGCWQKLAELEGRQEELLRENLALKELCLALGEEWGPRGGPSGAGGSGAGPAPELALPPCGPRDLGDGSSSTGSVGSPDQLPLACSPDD
UniProt P49454: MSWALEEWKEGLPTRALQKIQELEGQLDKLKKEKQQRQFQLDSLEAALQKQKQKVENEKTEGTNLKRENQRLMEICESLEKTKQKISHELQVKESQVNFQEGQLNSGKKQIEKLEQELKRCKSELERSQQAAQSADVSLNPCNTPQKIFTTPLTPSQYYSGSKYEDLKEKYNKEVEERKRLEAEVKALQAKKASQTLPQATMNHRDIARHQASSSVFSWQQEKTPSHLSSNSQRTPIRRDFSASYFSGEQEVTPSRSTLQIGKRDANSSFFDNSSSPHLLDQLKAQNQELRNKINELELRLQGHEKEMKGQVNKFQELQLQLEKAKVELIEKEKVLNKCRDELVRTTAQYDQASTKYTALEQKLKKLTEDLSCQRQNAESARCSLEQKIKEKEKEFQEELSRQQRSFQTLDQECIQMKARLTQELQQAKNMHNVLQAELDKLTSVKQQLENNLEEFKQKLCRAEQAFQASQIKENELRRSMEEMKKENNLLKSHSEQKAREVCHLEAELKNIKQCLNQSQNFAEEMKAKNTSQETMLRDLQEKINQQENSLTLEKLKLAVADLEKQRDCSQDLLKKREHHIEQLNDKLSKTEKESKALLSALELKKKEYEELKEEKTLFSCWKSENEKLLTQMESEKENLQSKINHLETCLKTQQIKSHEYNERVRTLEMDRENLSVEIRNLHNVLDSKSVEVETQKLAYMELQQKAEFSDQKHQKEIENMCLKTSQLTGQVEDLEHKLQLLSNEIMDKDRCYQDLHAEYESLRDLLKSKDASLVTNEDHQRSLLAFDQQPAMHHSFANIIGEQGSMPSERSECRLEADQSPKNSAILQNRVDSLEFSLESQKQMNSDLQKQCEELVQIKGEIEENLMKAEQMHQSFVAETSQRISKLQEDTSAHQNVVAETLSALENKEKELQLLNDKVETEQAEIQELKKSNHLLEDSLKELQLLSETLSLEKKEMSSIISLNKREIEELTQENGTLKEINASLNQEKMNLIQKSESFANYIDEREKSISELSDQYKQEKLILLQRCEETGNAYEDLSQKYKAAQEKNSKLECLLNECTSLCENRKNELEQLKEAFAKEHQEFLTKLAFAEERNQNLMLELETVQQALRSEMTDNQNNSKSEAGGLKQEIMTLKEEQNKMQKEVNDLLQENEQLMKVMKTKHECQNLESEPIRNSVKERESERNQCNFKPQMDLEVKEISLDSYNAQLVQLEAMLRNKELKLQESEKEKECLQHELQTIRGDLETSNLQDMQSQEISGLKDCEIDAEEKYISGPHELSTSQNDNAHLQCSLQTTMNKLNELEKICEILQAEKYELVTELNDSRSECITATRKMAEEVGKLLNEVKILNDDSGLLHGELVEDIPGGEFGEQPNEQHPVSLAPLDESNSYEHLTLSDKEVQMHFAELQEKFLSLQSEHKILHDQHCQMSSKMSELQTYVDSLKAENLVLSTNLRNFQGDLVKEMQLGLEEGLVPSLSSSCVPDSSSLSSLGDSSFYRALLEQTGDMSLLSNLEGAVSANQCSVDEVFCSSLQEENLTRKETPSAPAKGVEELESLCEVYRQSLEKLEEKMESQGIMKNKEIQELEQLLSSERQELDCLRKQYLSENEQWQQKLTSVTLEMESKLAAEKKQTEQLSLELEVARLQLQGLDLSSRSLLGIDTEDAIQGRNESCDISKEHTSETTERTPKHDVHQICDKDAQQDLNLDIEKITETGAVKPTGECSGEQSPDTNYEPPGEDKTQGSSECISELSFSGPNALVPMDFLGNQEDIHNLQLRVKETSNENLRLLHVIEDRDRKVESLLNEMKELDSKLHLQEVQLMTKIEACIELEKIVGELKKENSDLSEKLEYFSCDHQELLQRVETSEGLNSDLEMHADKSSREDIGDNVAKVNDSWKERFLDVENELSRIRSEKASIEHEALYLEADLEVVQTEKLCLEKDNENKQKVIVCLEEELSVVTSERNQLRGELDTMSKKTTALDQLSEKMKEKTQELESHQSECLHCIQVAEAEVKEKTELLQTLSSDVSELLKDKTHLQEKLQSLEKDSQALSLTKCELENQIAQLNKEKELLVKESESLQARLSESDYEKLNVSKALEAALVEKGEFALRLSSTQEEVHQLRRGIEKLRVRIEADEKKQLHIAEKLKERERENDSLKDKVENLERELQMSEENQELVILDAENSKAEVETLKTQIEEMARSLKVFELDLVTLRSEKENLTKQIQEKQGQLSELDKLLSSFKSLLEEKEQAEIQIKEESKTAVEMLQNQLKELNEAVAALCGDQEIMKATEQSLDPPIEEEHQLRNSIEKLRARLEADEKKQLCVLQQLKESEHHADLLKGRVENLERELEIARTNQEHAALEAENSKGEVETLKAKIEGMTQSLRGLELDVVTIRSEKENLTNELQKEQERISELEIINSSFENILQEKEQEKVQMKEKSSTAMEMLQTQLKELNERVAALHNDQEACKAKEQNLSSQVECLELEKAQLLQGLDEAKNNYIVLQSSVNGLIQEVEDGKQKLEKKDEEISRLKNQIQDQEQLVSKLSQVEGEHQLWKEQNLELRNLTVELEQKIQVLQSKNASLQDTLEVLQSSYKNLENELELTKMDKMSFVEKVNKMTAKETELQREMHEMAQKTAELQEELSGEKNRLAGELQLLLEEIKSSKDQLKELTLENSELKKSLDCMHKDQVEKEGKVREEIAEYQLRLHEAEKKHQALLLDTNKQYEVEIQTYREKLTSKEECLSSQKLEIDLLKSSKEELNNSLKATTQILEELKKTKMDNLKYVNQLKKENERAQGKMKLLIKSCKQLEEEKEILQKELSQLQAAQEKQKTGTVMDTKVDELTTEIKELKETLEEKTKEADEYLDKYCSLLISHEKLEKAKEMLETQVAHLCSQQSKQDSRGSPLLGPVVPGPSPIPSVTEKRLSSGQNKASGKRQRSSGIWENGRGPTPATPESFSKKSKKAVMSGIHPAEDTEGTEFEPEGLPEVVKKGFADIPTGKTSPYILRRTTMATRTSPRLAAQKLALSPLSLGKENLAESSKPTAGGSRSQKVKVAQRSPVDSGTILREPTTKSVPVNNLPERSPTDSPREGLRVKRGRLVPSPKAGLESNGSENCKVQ
UniProt Q02224: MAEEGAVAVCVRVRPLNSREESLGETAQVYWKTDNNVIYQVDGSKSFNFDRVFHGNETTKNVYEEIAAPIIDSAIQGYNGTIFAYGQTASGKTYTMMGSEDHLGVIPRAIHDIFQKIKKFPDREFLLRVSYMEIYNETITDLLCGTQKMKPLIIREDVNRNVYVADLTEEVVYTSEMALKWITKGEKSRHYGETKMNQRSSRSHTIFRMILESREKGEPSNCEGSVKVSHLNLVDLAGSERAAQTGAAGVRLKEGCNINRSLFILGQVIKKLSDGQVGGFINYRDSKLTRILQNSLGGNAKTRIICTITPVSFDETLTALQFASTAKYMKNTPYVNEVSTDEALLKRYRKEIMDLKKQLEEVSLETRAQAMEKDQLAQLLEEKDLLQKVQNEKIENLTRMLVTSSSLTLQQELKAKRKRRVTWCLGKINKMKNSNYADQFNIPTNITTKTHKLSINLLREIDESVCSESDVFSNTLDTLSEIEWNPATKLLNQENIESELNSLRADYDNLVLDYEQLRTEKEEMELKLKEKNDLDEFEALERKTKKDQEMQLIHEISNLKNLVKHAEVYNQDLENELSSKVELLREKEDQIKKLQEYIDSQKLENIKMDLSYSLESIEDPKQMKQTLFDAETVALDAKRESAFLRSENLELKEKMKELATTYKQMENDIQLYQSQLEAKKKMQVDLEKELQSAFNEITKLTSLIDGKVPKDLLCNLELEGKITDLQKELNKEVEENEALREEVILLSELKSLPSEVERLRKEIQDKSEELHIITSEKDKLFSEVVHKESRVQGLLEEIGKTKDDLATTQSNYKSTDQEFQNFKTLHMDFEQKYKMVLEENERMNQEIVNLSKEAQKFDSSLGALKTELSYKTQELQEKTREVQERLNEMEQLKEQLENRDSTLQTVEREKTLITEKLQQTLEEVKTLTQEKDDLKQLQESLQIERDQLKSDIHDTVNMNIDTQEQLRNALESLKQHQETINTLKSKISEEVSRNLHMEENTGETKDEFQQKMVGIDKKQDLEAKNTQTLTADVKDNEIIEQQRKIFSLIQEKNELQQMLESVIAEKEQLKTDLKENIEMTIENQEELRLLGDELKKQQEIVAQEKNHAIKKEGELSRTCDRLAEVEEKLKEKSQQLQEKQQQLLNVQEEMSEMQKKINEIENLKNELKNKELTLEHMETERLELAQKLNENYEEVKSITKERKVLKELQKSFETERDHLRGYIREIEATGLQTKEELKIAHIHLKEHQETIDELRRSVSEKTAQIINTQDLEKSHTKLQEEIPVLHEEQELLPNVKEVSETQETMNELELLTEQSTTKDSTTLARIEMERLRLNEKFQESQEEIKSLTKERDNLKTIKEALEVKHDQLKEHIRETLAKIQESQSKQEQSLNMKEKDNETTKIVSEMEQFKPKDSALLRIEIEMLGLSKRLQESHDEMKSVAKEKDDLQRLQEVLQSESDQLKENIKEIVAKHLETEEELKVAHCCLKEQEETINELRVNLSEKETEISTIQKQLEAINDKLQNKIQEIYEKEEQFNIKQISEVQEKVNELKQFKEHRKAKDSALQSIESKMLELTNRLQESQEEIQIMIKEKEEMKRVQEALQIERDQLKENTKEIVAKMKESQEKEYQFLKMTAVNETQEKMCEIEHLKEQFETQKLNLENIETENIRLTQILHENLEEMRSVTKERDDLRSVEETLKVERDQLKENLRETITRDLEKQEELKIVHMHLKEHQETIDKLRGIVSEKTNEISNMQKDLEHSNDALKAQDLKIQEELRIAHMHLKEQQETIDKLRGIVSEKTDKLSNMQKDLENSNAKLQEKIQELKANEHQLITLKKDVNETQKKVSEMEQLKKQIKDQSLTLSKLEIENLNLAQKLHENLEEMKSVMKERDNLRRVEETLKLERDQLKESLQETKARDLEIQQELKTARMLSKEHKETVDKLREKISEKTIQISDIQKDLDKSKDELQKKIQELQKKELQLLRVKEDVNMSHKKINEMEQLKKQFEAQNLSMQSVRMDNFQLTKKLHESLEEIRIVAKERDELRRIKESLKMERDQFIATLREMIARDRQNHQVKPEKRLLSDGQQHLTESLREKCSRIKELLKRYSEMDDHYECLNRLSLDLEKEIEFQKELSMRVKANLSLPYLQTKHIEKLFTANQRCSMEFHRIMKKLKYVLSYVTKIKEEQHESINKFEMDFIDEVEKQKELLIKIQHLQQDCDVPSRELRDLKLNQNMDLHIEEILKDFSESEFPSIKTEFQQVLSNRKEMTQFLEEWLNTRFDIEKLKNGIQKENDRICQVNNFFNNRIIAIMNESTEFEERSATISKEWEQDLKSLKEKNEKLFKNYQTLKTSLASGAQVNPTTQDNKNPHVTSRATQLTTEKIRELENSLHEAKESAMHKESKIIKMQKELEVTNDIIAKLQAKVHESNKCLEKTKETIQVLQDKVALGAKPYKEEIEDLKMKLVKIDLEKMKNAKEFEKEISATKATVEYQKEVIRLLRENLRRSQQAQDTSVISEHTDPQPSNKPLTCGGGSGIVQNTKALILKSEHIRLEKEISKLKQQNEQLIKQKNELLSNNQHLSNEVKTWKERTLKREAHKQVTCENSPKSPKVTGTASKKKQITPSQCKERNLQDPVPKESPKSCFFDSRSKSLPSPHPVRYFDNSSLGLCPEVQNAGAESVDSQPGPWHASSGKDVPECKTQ

compound: ClCC(=O)N[C@H]1CCCc2ccccc12; experiment: log2 mean competition ratio of IA-DTB cysteine labelling (DMSO/compound) (log2 ratio); higher = stronger cysteine engagement by compound; settings: 50 µM; treatment time: 4 h; cell line lysate: HEK293T
Protocol: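 IA-DTB competitive cysteine chemoproteomics in HEK293T RIPA lysate. Lysates were treated with compound 29 or 30 at 50 or 200 µM for 4 h, then IA-DTB (500 µM, 1 h), trypsin-digested, NeutrAvidin-enriched and analysed by diaPASEF. Competition ratio = intensity DMSO / intensity compound (n=4 treated, n=64 DMSO); binding: mean log2 CR ≥ 1 and p ≤ 0.05 plus QC filters. Target is the cysteine site.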

Row | Target | log2 mean competition ratio
1 | CDKN2AIP C24 (UniProt Q9NXV6) | 0.0475
2 | CCDC117 C81 (UniProt Q8IWD4) | 0.168
3 | CHAF1A C465 (UniProt Q13111) | 0.18
4 | CERT1 C65 | -0.037
5 | CCDC85B C116 (UniProt Q15834) | 0.249
6 | CEBPZ C374 (UniProt Q03701) | -0.879
7 | CCT5 C377 (UniProt P48643) | 0.154
8 | CEP170 C967 (UniProt Q5SW79) | 0.165
9 | CCNH C57 (UniProt P51946) | -0.342
10 | CHD1L C135 (UniProt Q86WJ1) | 0.661
11 | CC2D1B C809 (UniProt Q5T0F9) | -0.246
12 | CDC42BPB C1174 (UniProt Q9Y5S2) | -0.33
13 | CCDC120 C391 | 0.334
14 | CEP55 C443 (UniProt Q53EZ4) | 0.0107
15 | CDR2 C367 (UniProt Q01850) | 0.0859
16 | CENPF C650 (UniProt P49454) | -0.0114
17 | CDC6 C156 (UniProt Q99741) | 0.0946
18 | CENPC C472 (UniProt Q03188) | -0.178
19 | CDK5 C83 (UniProt Q00535) | -0.452

Row | Target | log2 mean competition ratio
20 | CENPF C373 (UniProt P49454) | 0.00897
21 | CCDC14 C297 | -0.0902
22 | CDT1 C441 (UniProt Q9H211) | -0.27
23 | CCT3 C366 | -0.34
24 | CENPP C22 (UniProt Q6IPU0) | -0.085
25 | CENPE C2116 (UniProt Q02224) | -0.333
26 | CEP57 C252 (UniProt Q86XR8) | 0.109
27 | CDKN2AIP C178 (UniProt Q9NXV6) | -0.0422
28 | CDK2 C177 (UniProt P24941) | 0.206
29 | CEP350 C1999 (UniProt Q5VT06) | 0.254
30 | CDK14 C100 | -0.544
31 | CENPQ C121 (UniProt Q7L2Z9) | -0.134
32 | CCDC28B C114 (UniProt Q9BUN5) | -0.425
33 | CENPV C219 (UniProt Q7Z7K6) | 0.206
34 | CDC37 C64 | -0.315
35 | CDC23 C442 (UniProt Q9UJX2) | -0.414
36 | CDC42BPA C678 (UniProt Q5VT25) | -0.511
37 | CCT4 C379 (UniProt P50991) | -0.112
38 | CFAP298 C83 (UniProt P57076) | -0.143

same assay, conditions: 200 µM; treatment time: 4 h; cell line lysate: HEK293T

Row | Target | log2 mean competition ratio
39 | CDKN2AIP C24 (UniProt Q9NXV6) | 0.0702
40 | CCDC117 C81 (UniProt Q8IWD4) | 0.141
41 | CHAF1A C465 (UniProt Q13111) | 0.124
42 | CERT1 C65 | 0.107
43 | CCDC85B C116 (UniProt Q15834) | 0.179
44 | CEBPZ C374 (UniProt Q03701) | -0.226
45 | CCT5 C377 (UniProt P48643) | -0.059
46 | CEP170 C967 (UniProt Q5SW79) | -0.245
47 | CCNH C57 (UniProt P51946) | 0.724
48 | CHD1L C135 (UniProt Q86WJ1) | 0.159
49 | CC2D1B C809 (UniProt Q5T0F9) | -0.0695
50 | CDC42BPB C1174 (UniProt Q9Y5S2) | 0.193
51 | CCDC120 C391 | 0.501
52 | CEP55 C443 (UniProt Q53EZ4) | -0.223
53 | CDR2 C367 (UniProt Q01850) | 0.12
54 | CENPF C650 (UniProt P49454) | 0.0278
55 | CDC6 C156 (UniProt Q99741) | -0.059
56 | CENPC C472 (UniProt Q03188) | -0.274
57 | CDK5 C83 (UniProt Q00535) | 0.184

Row | Target | log2 mean competition ratio
58 | CENPF C373 (UniProt P49454) | 0.0656
59 | CCDC14 C297 | 0.303
60 | CDT1 C441 (UniProt Q9H211) | 0.0894
61 | CCT3 C366 | 0.0349
62 | CENPP C22 (UniProt Q6IPU0) | -0.0953
63 | CENPE C2116 (UniProt Q02224) | 0.0195
64 | CEP57 C252 (UniProt Q86XR8) | -0.0294
65 | CDKN2AIP C178 (UniProt Q9NXV6) | -0.215
66 | CDK2 C177 (UniProt P24941) | -0.145
67 | CEP350 C1999 (UniProt Q5VT06) | 0.0401
68 | CDK14 C100 | 0.344
69 | CENPQ C121 (UniProt Q7L2Z9) | 0.174
70 | CCDC28B C114 (UniProt Q9BUN5) | 0.112
71 | CENPV C219 (UniProt Q7Z7K6) | 0.254
72 | CDC37 C64 | 0.0157
73 | CDC23 C442 (UniProt Q9UJX2) | 0.000877
74 | CDC42BPA C678 (UniProt Q5VT25) | 0.184
75 | CCT4 C379 (UniProt P50991) | -0.102
76 | CFAP298 C83 (UniProt P57076) | 0.0138
